Some of the results follow. These are further read-outs of the screen, such as a control signal, another cell line or another target. No call is given for them. Most of these compounds were active or inconclusive in the main read-out, so they are no random draw. Potencies come from curve fits of mixed quality, noted in brackets.
Assay: qHTS Assay to Find Inhibitors of Chronic Active B-Cell Receptor Signaling
Settings: ABC-DLBCL IkBa-CBG/CBR reporter, luminescence ratio (green luciferase fused to IkBa over red control in TMD8 lymphoma cells), 4 h
How it was run: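 Cell line TMD8 (human ABC DLBCL), stably expressing tet-inducible CBG68-IkBa fusion and CBR; IMDM/0.5% FBS; cpd up to 46 uM; dox induction, 4 h, 37C/5% CO2; dual luminescence; green/red ratio; MG132 control.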

[1] = measured here: CBR red luminescence, cell number
[2] = measured here: IkBa-CBG green luminescence

| SMILES | AC50 [1] | AC50 [2] |
| --- | --- | --- |
| O=C(NC1CCCCC1)c1ccc(-c2ccccc2[N+](=O)[O-])o1 | 35.5 µM [falling, single point] |  |
| CSc1nc(N)nc(SCC(=O)C23CC4CC(CC(C4)C2)C3)c1C#N | 20.6 µM [falling, single point] | 8.2 µM [rising, partial curve, poor fit] |
| CCn1nc(C)cc1-c1nnc(Sc2ncc([N+](=O)[O-])s2)n1C | 5.62 µM [rising, partial curve, poor fit] | 5.01 µM [falling, single point] |
| O=C(Nc1nc2ccc([N+](=O)[O-])cc2s1)c1ccc(S(=O)(=O)N2CCCc3ccccc32)cc1 | 0.224 µM [rising, full curve, poor fit] |  |
| CN(C)CCCNC(=O)c1ccc(/C=N/O)nc1 | 15.8 µM [falling, partial curve] |  |
| CCOCCCNC(=O)C(NC(=O)c1ccc(=O)[nH]c1)c1ccc(Cl)cc1 (centres undefined) | 0.651 µM [falling, partial curve, poor fit] |  |
| Cc1c(C(=O)N2CC(C)OC(C)C2)sc2nc(-c3ccc(F)cc3)cn12 (centres undefined) | 35.5 µM [falling, single point] |  |
| O=C(CSc1ccccc1)NCc1ccccc1 | 35.5 µM [rising, single point] |  |
| O=C(CSc1nc2cc(Cl)ccc2s1)NCC1CCCO1 (centres undefined) | 29.1 µM [rising, partial curve, poor fit] |  |
| Oc1ccc(Nc2nc(-c3cccnc3)cs2)cc1 | 15.8 µM [falling, single point] | 12.6 µM [falling, partial curve] |
| COc1ccc(NC(=O)CN(C)C(=O)CCSc2ccc(C)cc2)cc1 | 29.1 µM [falling, single point] |  |
| COc1ccc(C2=NOC(C(=O)N(C)Cc3ccccc3)C2)cc1 (centres undefined) | 17.8 µM [falling, partial curve, poor fit] |  |
| CCc1cccc2c(-c3csc(=NC)n3C)c[nH]c12 | 28.2 µM [falling, single point] |  |
| O=C1c2ccccc2C(Nc2ccc(S(=O)(=O)N3CCCCC3)cc2)N1Cc1ccco1 (centres undefined) | 23.1 µM [falling, single point] |  |
| CCCc1c(C(=O)OCC)sc(N)c1C#N | 0.0891 µM [falling, full curve, poor fit] |  |
| O=S(=O)(c1cnc(Cl)c(Br)c1)N1CCc2ccccc21 | 7.94 µM [falling, partial curve, poor fit] |  |
| CC(Cc1cccs1)NC(=O)c1cccc(Cl)c1 (centres undefined) | 3.26 µM [rising, full curve, poor fit] |  |
| CCCCn1c(SCc2ncc(-c3ccccc3)o2)nc2cc(S(N)(=O)=O)ccc21 | 35.5 µM [falling, single point] |  |
| Cc1ccc(S(=O)(=O)Nc2ccc(NC(=O)CN3CCCCC3)cc2)cc1 | 29.1 µM [rising, single point] |  |
| CCOc1ccccc1NC(=O)CSc1nnc(-c2cnccn2)n1C | 17.8 µM [falling, single point] |  |
| Cc1cc(C)nc(NC(=O)c2cc(-c3ccc(C)s3)nc3ccccc23)c1 | 1.03 µM [rising, full curve, poor fit] |  |

Molecules above that contain a cyano group, in the order listed:

| SMILES | AC50 [1] | AC50 [2] |
| --- | --- | --- |
| CSc1nc(N)nc(SCC(=O)C23CC4CC(CC(C4)C2)C3)c1C#N | 20.6 µM [falling, single point] | 8.2 µM [rising, partial curve, poor fit] |
| CCCc1c(C(=O)OCC)sc(N)c1C#N | 0.0891 µM [falling, full curve, poor fit] |  |

(further entries)

| SMILES | AC50 [1] | AC50 [2] |
| --- | --- | --- |
| Cn1ncc(C#N)c1/N=C/N1CCCCCC1 | 11.2 µM [falling, single point] |  |
| COc1cc(OC)c(OC)cc1/C=N/n1c(-c2n[nH]c3c2CCC3)n[nH]c1=S | 1.41 µM [rising, full curve, poor fit] |  |
| CCCc1cc(=O)oc2cc(OCc3ccc(C(=O)O)o3)ccc12 | 15.8 µM [falling, single point] |  |
| Cc1ccn2cc(C(=O)Nc3ccc4c(c3)OCCO4)nc2c1 | 25.1 µM [falling, single point] |  |
| O=C(c1cc2cc(Br)ccc2oc1=O)N1CCN(c2ccccn2)CC1 | 35.5 µM [rising, single point] |  |
| CCOC(=O)N1CCC(N2Cc3cccc(C(=O)Nc4ccc(F)cc4)c3C2=O)CC1 | 0.112 µM [falling, full curve, poor fit] |  |
| COc1ccc(-c2noc(CCC(=O)NCCCN3CCC(Cc4ccccc4)CC3)n2)cc1 | 16.4 µM [falling, single point] |  |
| COC(=O)c1c(NC(=O)c2ccccc2)sc(Cc2ccccc2)c1C | 23.1 µM [rising, single point] |  |
| C(=N\Nc1nncc2ccccc12)/c1ccccn1 | 10 µM [falling, partial curve] |  |
| COc1cccc(/C=C2\SC(=O)N(CC(=O)NCCCn3ccnc3)C2=O)c1 | 15.8 µM [falling, single point] |  |
| COc1ccc(C(=O)c2c3ccc(C(F)(F)F)cc3[n+]([O-])n2CCCC(N)=O)cc1 | 14.6 µM [rising, partial curve, poor fit] |  |
| CCOC(=O)C1CCN(C(=O)CSc2cc(=O)n(CC)c3ccccc23)CC1 |  | 20.6 µM [falling, partial curve, poor fit] |
| O=S(=O)(c1cccc(-c2n[nH]c(=S)n2Cc2ccccc2)c1)N1CCOCC1 | 35.5 µM [rising, single point] |  |
| C=CCOc1c(Br)cc(/C=C2/NC(=S)N(C(C)=O)C2=O)cc1OC | 14.1 µM [rising, single point] |  |
| Cc1ccc(/C=C/c2nc3sc(C(=O)O)c(C)c3c(=O)[nH]2)cc1[N+](=O)[O-] | 0.355 µM [falling, full curve, poor fit] |  |
| CCOc1ccc(C2=Nn3c(nnc3-c3ccccc3OC)SC2)cc1 |  | 0.282 µM [falling, full curve] |
| O=C(C1CC1)N1CCc2sccc2C1c1ccc(Cl)cc1 (centres undefined) | 5.62 µM [rising, single point] |  |
| CC(c1cccnc1)N(CCN(C)C)C(=O)Nc1ccc(Cl)cc1 (centres undefined) | 4.11 µM [rising, full curve, poor fit] |  |
| COc1ccc(Cl)cc1C(=O)Nc1ccc(NC(=O)c2ccco2)cc1 | 5.17 µM [rising, partial curve, poor fit] |  |
| COc1ccc2nc3ccccc3nc2c1N | 11.2 µM [falling, partial curve, poor fit] | 11.2 µM [rising, partial curve, poor fit] |
| C[C@@H]1[C@H]2CCCC[C@H]2CN(C(=O)OC(C)(C)C)[C@@H]1c1cn(Cc2ccccc2)c2ccc(F)cc12 | 29.1 µM [rising, single point] | 18.4 µM [falling, single point] |

| SMILES | AC50 [1] | AC50 [2] |
| --- | --- | --- |
| COC(=O)c1ccc(CSc2nc3ccccc3s2)o1 | 8.2 µM [rising, partial curve, poor fit] |  |
| COc1ccc(C(=O)Nc2c(Cl)cc(Cl)cc2C(=O)N2CCC(C)CC2)cc1 | 4.11 µM [rising, full curve] |  |
| O=S(=O)(NCCc1ccccc1)c1ccc(Br)cc1 | 17.8 µM [rising, partial curve, poor fit] |  |
| O=C(COC(=O)c1ccc(O)cc1)Nc1ccc(Cl)cc1 | 25.1 µM [falling, single point] |  |
| Cc1ccc(-n2nc(C)c(C(=O)Nc3cccc(C(=O)NC4CC4)c3)n2)c(C)c1 | 20.6 µM [falling, partial curve] |  |
| CCn1c(=N)n(CC(=O)c2ccc(OC)c(OC)c2)c2ccccc21 | 0.082 µM [rising, full curve, poor fit] |  |
| Cc1c(C(=O)N2CCN(c3ccc(F)cc3)CC2)sc2ncnc(N3CCN(c4ccccn4)CC3)c12 | 25.1 µM [falling, single point] |  |
| Cc1ccc(/C=N/n2c(-c3ccccc3)n[nH]c2=S)cc1 | 20 µM [rising, partial curve, poor fit] |  |
| NC(=O)c1ccsc1NC(=O)COC(=O)Cc1ccsc1 | 29.1 µM [falling, single point] |  |
| CC(=O)Nc1c(-c2ccccc2)nc2ncccn12 | 18.4 µM [falling, partial curve, poor fit] |  |
| CCOc1ccc(NC(=O)CC2C(=O)N(c3cccc(OC)c3)C(=O)N2CCOC)cc1 (centres undefined) | 0.112 µM [falling, full curve, poor fit] |  |
| CC(C)Oc1ccccc1C1CC(=O)Nc2cc3c(cc21)OCO3 (centres undefined) | 35.5 µM [rising, single point] | 15.8 µM [falling, single point] |
| CCCOc1ccc(C(=O)Nc2ccc(S(=O)(=O)Nc3onc(C)c3C)cc2)cc1 | 35.5 µM [falling, single point] |  |
| O=C(c1ccccc1)c1nccc2ccccc12 | 16.4 µM [rising, partial curve, poor fit] |  |
| Cc1noc(C)c1COC(=O)CCc1nc2ccccc2c(=O)[nH]1 | 11.2 µM [falling, partial curve] |  |
| COc1ccc(CNCCS(=O)(=O)NC2CCCC2)cc1 | 4.11 µM [rising, single point] |  |
| CNC(=O)C12N=CNN=C1N(C)C(=O)N2C (centres undefined) | 11.2 µM [rising, partial curve] |  |
| CCOc1cccc(OCCOc2ccccc2[N+](=O)[O-])c1 | 6.31 µM [rising, full curve, poor fit] |  |
| COc1cc2c(cc1OC)C(C1C(=O)CC(C)CC1=O)N(C(=O)CCl)CC2 (centres undefined) | 18.4 µM [rising, single point] |  |
| CCCCCCc1ccc(-c2ncc(N)cn2)cc1 | 0.651 µM [rising, partial curve, poor fit] |  |
| COc1ccc(S(=O)(=O)NC(CC(=O)NCc2ccco2)C(C)C)cc1 (centres undefined) | 29.1 µM [rising, single point] |  |

Complete entries from above.
CCCOc1ccc(C(=O)Nc2ccc(S(=O)(=O)Nc3onc(C)c3C)cc2)cc1 in the list: AC50 [1]: 35.5 µM [falling, single point]
Cc1ccc(/C=N/n2c(-c3ccccc3)n[nH]c2=S)cc1 in the list: AC50 [1]: 20 µM [rising, partial curve, poor fit]
